# Results: patent US20250319052A1, “TREATMENT WITH HIGHLY PURIFIED EICOSAPENT AENOIC ACID AS FREE FATTY ACID IMPROVES INFLAMMATION, AFFECTS COLONIC DIFFERENTIATION MARKERS AND MICROBIOTA IN PATIENTS WITH ULCERATIVE COLITIS” (KD SWISS GMBH, priority 2019, published 2025)
# At least one compound was matched to its structure with a doubt left.
# Test system: fecal microbiota
# Assay: Fecal microbiota analysis (16S rRNA V3-V4 sequencing)
# Type: in vivo, human
# Settings: UC patients, vs T0
structure (smiles),measurement,value
"CC/C=C\C/C=C\C/C=C\C/C=C\C/C=C\CCCC(=O)O [EPA-FFA, eicosapentaenoic acid]",fecal amount of Clostridium spp.,reduce
